Results: patent US8389442B2, “N-phenyl-′(4-pyridyl)-azinyl!amine derivatives as plant protection agents” (Syngenta Crop Protection LLC, priority 2003, dated 2013)
Some entries share one result that the patent states for a list of compounds.

Columns and labels:
[1] = tested on: Pyrenophora teres (Helminthosporium)/barley; experiment: Effect against Pyrenophora teres (Helminthosporium)/barley (net blotch on barley); assay type: in vivo; conditions: 0.02% active substance, spray; barley cv. Regina inoculated 2 days after application; assessed after 2 days incubation
[2] = tested on: Venturia inaegualis on apples; experiment: Residual protective activity against Venturia inaegualis on apples (scab on apple); assay type: in vivo; conditions: 0.02% active substance, spray; apple seedlings cv. McIntosh inoculated 1 day after application
Pyricularia oryzae/rice = assay type: in vivo; conditions: 0.02% active substance, spray; rice cv. Sasanishiki inoculated 2 days after application; assessed after 6 days incubation
[3] = tested on: Puccinia graminis on wheat; assay type: in vivo; conditions: 0.02% active substance, spray; wheat cv. Arina inoculated 2 days after application; assessed 10 days after inoculation
Botrytis cinerea/tomato = experiment: Effect against Botrytis cinerea/tomato (Botrytis on tomatoes); assay type: in vivo; conditions: 0.02% active substance, spray; tomato cv. Roter Gnom inoculated 2 days after application; assessed after 4 days incubation
[4] = tested on: Erysiphe graminis on barley; conditions: 0.02% active substance, spray; barley cv. Regina; evaluated 6 days after infection
Septoria nodorum/wheat = experiment: Effect against Septoria nodorum/wheat (Septoria leaf spot on wheat); assay type: in vivo; conditions: 0.02% active substance, spray; wheat cv. Arina inoculated 1 day after application; assessed 8 days after inoculation

COCC(C)Nc1cc(-c2ccnc(Nc3ccc(C#N)cc3)n2)ccn1 (centres unmarked) [Compound A1.72]
control of the fungal infection [1]: over 70%
control of the fungal infection [2]: over 70%
control of the fungal infection (Pyricularia oryzae/rice): over 70%
control of the fungal infection [3]: over 70%
control of the fungal infection (Botrytis cinerea/tomato): over 70%
control of the fungal infection [4]: over 70%
control of the fungal infection (Septoria nodorum/wheat): Over 70%

COCC(C)Nc1cc(-c2ccnc(Nc3ccc(Cl)c(Cl)c3)n2)ccn1 (centres unmarked) [Compound A1.76]
control of the fungal infection [1]: over 70%
control of the fungal infection (Septoria nodorum/wheat): Over 70%

COCC(C)Nc1cc(-c2ccnc(Nc3ccc(F)c(Cl)c3)n2)ccn1 (centres unmarked) [Compound A1.79]
control of the fungal infection [1]: over 70%
control of the fungal infection [3]: over 70%
control of the fungal infection (Botrytis cinerea/tomato): over 70%
control of the fungal infection (Septoria nodorum/wheat): Over 70%

COCC(C)Nc1cc(-c2ccnc(Nc3cc(F)cc(F)c3)n2)ccn1 (centres unmarked) [Compound A1.81]
control of the fungal infection [1]: over 70%
control of the fungal infection (Septoria nodorum/wheat): Over 70%

COCC(C)Nc1cc(-c2ccnc(Nc3cc(OC)cc(OC)c3)n2)ccn1 (centres unmarked) [Compound A1.84]
control of the fungal infection [1]: over 70%
control of the fungal infection [2]: over 70%
control of the fungal infection (Pyricularia oryzae/rice): over 70%
control of the fungal infection [3]: over 70%
control of the fungal infection (Botrytis cinerea/tomato): over 70%
control of the fungal infection [4]: over 70%
control of the fungal infection (Septoria nodorum/wheat): Over 70%

COCC(C)Nc1cc(-c2ccnc(Nc3ccc(OC)c(OC)c3)n2)ccn1 (centres unmarked) [Compound A1.87]
control of the fungal infection [1]: over 70%
control of the fungal infection (Septoria nodorum/wheat): Over 70%

COCC(C)Nc1cc(-c2ccnc(Nc3ccc(Cl)c(O)c3)n2)ccn1 (centres unmarked) [Compound A1.96]
control of the fungal infection [1]: over 70%
control of the fungal infection (Septoria nodorum/wheat): Over 70%

COCC(C)Nc1cc(-c2ccnc(Nc3ccc(OC)c(F)c3)n2)ccn1 (centres unmarked) [Compound A1.103]
control of the fungal infection [1]: over 70%
control of the fungal infection [3]: over 70%
control of the fungal infection (Septoria nodorum/wheat): Over 70%

COCC(C)Nc1cc(-c2ccnc(Nc3ccc4c(c3)C(=O)N(C)C4=O)n2)ccn1 (centres unmarked) [Compound A1.116]
control of the fungal infection [1]: over 70%
control of the fungal infection [2]: over 70%
control of the fungal infection (Pyricularia oryzae/rice): over 70%
control of the fungal infection [3]: over 70%
control of the fungal infection (Botrytis cinerea/tomato): over 70%
control of the fungal infection [4]: over 70%
control of the fungal infection (Septoria nodorum/wheat): Over 70%

COCC(C)Nc1cc(-c2ccnc(Nc3ccc4oc(=O)ccc4c3)n2)ccn1 (centres unmarked) [Compound A1.118]
control of the fungal infection [1]: over 70%
control of the fungal infection [2]: over 70%
control of the fungal infection (Pyricularia oryzae/rice): over 70%
control of the fungal infection [3]: over 70%
control of the fungal infection (Botrytis cinerea/tomato): over 70%
control of the fungal infection [4]: over 70%
control of the fungal infection (Septoria nodorum/wheat): Over 70%

COCC(C)Nc1cc(-c2ccnc(Nc3ccc(C#N)c(Cl)c3)n2)ccn1 (centres unmarked) [Compound A1.123]
control of the fungal infection [1]: over 70%
control of the fungal infection [2]: over 70%
control of the fungal infection (Pyricularia oryzae/rice): over 70%
control of the fungal infection [3]: over 70%
control of the fungal infection (Botrytis cinerea/tomato): over 70%
control of the fungal infection [4]: over 70%
control of the fungal infection (Septoria nodorum/wheat): Over 70%

COCC(C)Nc1cc(-c2ccnc(Nc3cc(C)cc(C)c3)n2)ccn1 (centres unmarked) [Compound A1.130]
control of the fungal infection [1]: over 70%

COCC(C)Nc1cc(-c2ccnc(Nc3cccc(NS(C)(=O)=O)c3)n2)ccn1 (centres unmarked) [Compound A1.150]
control of the fungal infection [1]: over 70%

COCC(C)Nc1cc(-c2ccnc(Nc3ccc(S(F)(F)(F)(F)F)cc3)n2)ccn1 (centres unmarked) [Compound A1.151]
control of the fungal infection [1]: over 70%
